Test results taken from the supplement of paper PMC12823440, “Inhibitors supercharge kinase turnover through native proteolytic circuits” (Nature, 2025).
Structures can show the parent of a compound that is named as a salt. Some of the results follow. The calls rarely recur for the same compound in another form.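 Kinases, fused to nanoluciferase, were expressed in K562 cells; luminescence was measured every 4 h from 2 to 18 h as percent of control (DMSO = 100%, positive control = 0%). A time point is decreased if signal falls significantly (2 sigma). Hits were called by the authors by a rule that is not shown; the count of time points alone does not decide it.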

Chains of the proteins cited; added tags and fusions are not shown. Lines headed by an entry give the natural chain unless they say otherwise; changes in a name come on top.
UniProt P50613: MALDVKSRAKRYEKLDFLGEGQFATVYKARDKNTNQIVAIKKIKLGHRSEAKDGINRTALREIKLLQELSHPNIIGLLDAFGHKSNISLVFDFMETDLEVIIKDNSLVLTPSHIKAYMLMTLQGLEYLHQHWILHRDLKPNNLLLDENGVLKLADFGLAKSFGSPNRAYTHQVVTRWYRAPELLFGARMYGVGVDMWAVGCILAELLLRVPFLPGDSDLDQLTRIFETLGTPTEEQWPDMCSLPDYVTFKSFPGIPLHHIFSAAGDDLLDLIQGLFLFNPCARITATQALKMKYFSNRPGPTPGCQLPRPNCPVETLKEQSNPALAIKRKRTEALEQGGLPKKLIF
UniProt P50750, whole entry: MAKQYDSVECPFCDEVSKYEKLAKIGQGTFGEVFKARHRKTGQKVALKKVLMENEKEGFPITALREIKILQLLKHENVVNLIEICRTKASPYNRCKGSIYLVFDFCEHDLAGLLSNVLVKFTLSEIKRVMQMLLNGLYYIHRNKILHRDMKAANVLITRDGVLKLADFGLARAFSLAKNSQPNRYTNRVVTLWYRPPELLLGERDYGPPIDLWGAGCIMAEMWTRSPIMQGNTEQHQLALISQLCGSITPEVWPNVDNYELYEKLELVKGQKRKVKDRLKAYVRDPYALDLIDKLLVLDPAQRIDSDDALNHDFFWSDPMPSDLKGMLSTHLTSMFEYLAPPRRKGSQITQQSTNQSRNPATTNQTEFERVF
UniProt O96017, whole entry: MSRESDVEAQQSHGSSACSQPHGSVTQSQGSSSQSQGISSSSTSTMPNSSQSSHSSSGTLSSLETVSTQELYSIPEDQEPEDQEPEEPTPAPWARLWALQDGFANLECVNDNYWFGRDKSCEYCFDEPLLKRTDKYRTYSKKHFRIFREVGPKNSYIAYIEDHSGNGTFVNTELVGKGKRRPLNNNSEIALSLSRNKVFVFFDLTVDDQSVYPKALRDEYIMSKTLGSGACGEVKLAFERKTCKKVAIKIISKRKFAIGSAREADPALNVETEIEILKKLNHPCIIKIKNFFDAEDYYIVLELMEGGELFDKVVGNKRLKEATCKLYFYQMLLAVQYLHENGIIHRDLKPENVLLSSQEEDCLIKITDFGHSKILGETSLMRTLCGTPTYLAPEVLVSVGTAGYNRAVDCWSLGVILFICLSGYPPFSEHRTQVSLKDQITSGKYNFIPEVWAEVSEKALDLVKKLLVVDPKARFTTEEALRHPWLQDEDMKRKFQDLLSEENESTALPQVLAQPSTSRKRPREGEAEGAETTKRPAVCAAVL
UniProt P07333, whole entry: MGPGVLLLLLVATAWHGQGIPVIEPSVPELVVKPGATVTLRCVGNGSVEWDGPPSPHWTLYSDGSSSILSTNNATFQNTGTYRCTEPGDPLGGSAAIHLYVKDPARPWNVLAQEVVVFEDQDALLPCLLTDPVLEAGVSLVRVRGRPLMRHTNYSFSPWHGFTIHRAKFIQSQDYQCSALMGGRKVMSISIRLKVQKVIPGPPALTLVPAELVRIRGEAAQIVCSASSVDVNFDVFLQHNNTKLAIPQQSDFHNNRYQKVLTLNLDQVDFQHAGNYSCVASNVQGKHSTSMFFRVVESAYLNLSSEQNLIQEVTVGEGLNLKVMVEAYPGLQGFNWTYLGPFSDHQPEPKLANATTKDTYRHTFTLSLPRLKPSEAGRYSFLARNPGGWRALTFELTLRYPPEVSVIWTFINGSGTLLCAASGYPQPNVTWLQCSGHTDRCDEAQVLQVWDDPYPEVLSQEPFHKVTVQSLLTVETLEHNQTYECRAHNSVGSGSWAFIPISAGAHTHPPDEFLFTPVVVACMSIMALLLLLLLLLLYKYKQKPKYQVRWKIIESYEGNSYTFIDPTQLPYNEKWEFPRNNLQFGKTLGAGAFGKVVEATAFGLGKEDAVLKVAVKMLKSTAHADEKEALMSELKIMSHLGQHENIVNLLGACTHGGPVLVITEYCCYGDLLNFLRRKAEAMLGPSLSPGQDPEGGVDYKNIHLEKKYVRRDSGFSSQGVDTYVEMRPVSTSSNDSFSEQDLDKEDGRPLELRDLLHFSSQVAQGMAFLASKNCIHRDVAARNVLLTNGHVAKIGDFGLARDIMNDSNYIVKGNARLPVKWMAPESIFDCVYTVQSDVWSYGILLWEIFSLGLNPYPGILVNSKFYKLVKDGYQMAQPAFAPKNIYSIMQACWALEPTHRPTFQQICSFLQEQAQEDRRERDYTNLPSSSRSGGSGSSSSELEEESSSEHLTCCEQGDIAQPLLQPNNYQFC
UniProt P41240: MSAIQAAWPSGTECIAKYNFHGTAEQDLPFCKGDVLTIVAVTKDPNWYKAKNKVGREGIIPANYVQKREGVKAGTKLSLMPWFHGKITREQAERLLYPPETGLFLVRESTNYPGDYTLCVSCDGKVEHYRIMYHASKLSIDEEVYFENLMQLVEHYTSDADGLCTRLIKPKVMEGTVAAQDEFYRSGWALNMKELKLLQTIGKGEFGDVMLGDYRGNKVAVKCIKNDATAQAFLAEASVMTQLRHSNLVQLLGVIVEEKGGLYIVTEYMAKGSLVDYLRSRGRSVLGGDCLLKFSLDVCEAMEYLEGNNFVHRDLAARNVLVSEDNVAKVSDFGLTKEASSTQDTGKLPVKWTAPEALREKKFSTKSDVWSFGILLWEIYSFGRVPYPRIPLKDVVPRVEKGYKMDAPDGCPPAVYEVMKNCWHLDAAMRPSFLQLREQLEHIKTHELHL
UniProt P48729: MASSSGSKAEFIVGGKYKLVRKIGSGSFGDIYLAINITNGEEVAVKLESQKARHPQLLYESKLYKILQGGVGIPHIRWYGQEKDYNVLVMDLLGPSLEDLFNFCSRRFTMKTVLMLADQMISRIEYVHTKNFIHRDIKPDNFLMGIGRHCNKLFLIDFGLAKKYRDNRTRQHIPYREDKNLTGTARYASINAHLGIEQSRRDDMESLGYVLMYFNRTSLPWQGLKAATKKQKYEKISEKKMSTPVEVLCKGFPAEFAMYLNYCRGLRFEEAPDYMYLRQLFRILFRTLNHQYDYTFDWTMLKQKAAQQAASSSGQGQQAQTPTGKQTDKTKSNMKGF
UniProt P48730: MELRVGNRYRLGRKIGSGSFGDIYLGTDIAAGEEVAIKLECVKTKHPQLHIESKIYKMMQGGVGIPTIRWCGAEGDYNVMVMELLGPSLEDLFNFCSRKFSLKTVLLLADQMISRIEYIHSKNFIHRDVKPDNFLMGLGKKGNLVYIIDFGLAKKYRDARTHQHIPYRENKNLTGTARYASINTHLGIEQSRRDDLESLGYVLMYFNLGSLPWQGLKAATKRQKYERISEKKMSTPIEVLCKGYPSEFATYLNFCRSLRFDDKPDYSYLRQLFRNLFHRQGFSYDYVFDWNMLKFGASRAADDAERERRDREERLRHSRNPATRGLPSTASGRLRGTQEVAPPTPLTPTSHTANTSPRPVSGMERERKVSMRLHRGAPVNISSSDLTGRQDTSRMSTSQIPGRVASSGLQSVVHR
UniProt Q08345: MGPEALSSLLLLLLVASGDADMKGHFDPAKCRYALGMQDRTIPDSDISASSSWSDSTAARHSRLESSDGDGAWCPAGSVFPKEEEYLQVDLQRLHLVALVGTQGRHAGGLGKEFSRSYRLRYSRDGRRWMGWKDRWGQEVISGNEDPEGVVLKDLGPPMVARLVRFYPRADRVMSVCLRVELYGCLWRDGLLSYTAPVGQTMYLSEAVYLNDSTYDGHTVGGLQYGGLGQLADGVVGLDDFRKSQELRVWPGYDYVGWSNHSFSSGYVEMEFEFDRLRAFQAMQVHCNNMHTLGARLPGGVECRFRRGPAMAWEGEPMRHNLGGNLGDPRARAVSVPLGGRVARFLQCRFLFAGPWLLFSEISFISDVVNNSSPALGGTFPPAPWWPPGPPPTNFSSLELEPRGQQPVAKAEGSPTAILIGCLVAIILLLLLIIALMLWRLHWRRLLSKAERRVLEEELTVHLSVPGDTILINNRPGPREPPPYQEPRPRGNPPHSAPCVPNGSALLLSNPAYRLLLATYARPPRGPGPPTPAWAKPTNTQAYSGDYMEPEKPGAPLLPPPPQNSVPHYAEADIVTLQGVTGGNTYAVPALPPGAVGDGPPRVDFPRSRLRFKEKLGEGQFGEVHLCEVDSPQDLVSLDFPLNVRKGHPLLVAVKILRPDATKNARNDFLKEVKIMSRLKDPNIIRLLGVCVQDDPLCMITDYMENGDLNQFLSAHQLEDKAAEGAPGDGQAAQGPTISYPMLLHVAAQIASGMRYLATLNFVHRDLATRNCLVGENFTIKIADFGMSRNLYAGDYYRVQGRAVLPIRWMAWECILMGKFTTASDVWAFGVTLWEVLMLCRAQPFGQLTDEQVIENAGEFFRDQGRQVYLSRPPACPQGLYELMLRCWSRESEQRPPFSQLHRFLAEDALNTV
UniProt Q9Y463, whole entry, looked up: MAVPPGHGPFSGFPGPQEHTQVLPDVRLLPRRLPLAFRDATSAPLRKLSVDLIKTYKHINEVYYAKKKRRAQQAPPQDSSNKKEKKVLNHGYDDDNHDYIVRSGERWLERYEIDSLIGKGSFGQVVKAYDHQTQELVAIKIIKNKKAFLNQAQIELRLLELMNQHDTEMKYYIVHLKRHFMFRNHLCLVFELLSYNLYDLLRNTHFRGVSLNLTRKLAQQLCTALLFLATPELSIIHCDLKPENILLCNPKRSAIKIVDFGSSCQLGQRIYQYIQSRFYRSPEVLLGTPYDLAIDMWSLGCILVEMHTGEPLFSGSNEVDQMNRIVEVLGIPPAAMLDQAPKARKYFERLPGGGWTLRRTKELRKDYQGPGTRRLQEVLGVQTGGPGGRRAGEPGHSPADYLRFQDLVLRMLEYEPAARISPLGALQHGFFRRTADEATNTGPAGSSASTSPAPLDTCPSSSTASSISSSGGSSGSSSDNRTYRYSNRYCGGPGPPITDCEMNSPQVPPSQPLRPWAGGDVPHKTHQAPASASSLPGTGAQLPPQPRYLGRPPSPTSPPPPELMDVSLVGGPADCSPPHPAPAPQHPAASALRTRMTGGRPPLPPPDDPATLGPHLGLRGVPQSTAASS
UniProt Q92630: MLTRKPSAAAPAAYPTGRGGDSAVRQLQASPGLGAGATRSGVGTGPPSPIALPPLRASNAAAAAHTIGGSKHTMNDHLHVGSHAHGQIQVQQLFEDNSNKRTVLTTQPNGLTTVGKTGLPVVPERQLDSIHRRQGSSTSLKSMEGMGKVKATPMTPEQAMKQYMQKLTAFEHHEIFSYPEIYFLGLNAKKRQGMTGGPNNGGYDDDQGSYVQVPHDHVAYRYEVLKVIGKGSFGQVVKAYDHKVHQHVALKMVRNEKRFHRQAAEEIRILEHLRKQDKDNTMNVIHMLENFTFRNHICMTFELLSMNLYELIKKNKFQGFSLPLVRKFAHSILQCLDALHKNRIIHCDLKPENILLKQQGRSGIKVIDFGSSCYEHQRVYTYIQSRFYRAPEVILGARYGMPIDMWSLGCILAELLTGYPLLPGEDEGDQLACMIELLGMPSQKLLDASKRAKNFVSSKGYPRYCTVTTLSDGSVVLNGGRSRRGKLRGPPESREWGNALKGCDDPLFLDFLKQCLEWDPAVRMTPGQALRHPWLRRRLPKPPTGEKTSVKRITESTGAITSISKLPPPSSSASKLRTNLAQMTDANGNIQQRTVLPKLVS

Legend:
Test in all cases: kinase-Nluc reporter destabilization hit call (1 = scored as downregulated) (binary); higher = compound decreases kinase abundance
Details in all cases: K562; 2-18 h
[1] = biological target: CDK7 (UniProt P50613)
[2] = biological target: CDK9 (UniProt P50750)
[3] = biological target: CHEK2 (UniProt O96017)
[4] = biological target: CSF1R (UniProt P07333)
[5] = biological target: CSK (UniProt P41240)
[6] = biological target: CSNK1A1 (UniProt P48729)
[7] = biological target: CSNK1D (UniProt P48730)
[8] = biological target: DDR1 (UniProt Q08345)
[9] = biological target: DYRK1B (UniProt Q9Y463)
[10] = biological target: DYRK2 (UniProt Q92630)

Measured: kinase-Nluc reporter destabilization hit call

Cc1ccc(Oc2nc3cc(-c4ccc5c(ccn5C)c4)c(Cl)cc3[nH]2)cc1C(=O)O (10 µM)
inactive: [1] 0 | [2] 0 | [3] 0 | [4] 0 | [5] 0 | [6] 0 | [7] 0 | [8] 0 | [9] 0 | [10] 0

C[C@@]1(O)CCC[C@H]1n1c(=O)c(C(F)F)cc2cnc(NC3CCN(S(C)(=O)=O)CC3)nc21 (2.5 µM)
inactive: [1] 0 | [2] 0 | [3] 0 | [4] 0 | [5] 0 | [6] 0 | [7] 0 | [8] 0 | [9] 0 | [10] 0

O=C(Nc1cccnc1)c1cc(C(=O)c2c(F)cccc2Br)c[nH]1 (10 µM)
inactive: [1] 0 | [2] 0 | [3] 0 | [4] 0 | [5] 0 | [6] 0 | [7] 0 | [8] 0 | [9] 0 | [10] 0

CS(=O)(=O)c1ccc(-c2cnc(N)c(C(=O)Nc3ccccc3)n2)cc1 (10 µM)
inactive: [1] 0 | [2] 0 | [3] 0 | [4] 0 | [5] 0 | [6] 0 | [7] 0 | [8] 0 | [9] 0 | [10] 0

CN1CCN(c2ccc(C(=O)Nc3cc(-c4cccc(NS(=O)(=O)c5ccccc5)c4)[nH]n3)cc2)CC1 [BPR1J-097 Hydrochloride] (2.5 µM)
inactive: [1] 0 | [2] 0 | [3] 0 | [4] 0 | [5] 0 | [6] 0 | [7] 0 | [8] 0 | [9] 0 | [10] 0

Cc1noc(C)c1-c1ccc(-c2cc(C(N)=O)c(NC(N)=O)s2)c(O[C@H]2CCNC2)c1 (10 µM)
inactive: [1] 0 | [2] 0 | [3] 0 | [4] 0 | [5] 0 | [6] 0 | [7] 0 | [8] 0 | [9] 0 | [10] 0

Cc1ccc2nc(NC(=O)CSc3nc4c(c(=O)n3-c3ccccc3)SCC4)sc2c1 (2 µM)
inactive: [1] 0 | [2] 0 | [3] 0 | [4] 0 | [5] 0 | [6] 0 | [7] 0 | [8] 0 | [9] 0 | [10] 0

Cc1ccc(-c2c(C(=O)CF)n(CCCO)c3ncnc(N)c23)cc1 (10 µM)
inactive: [1] 0 | [2] 0 | [3] 0 | [4] 0 | [5] 0 | [6] 0 | [7] 0 | [8] 0 | [9] 0 | [10] 0

CN(CC(=O)N(Cc1ccc(C2CCCCC2)cc1)c1ccc(C(=O)O)cc1)S(=O)(=O)c1c(F)c(F)c(F)c(F)c1F (2.5 µM)
inactive: [1] 0 | [2] 0 | [3] 0 | [4] 0 | [5] 0 | [6] 0 | [7] 0 | [8] 0 | [9] 0 | [10] 0

NCc1ccc(Nc2ncc(F)c(Nc3ccccc3)n2)cc1 (10 µM)
inactive: [1] 0 | [2] 0 | [3] 0 | [4] 0 | [5] 0 | [6] 0 | [7] 0 | [8] 0 | [9] 0 | [10] 0

Part of the list above in order of length of the SMILES, rising.
Cc1ccc(-c2c(C(=O)CF)n(CCCO)c3ncnc(N)c23)cc1 (10 µM)
inactive: [1] 0 | [2] 0 | [3] 0 | [4] 0 | [5] 0 | [6] 0 | [7] 0 | [8] 0 | [9] 0 | [10] 0

Cc1noc(C)c1-c1ccc(-c2cc(C(N)=O)c(NC(N)=O)s2)c(O[C@H]2CCNC2)c1 (10 µM)
inactive: [1] 0 | [2] 0 | [3] 0 | [4] 0 | [5] 0 | [6] 0 | [7] 0 | [8] 0 | [9] 0 | [10] 0

CN(CC(=O)N(Cc1ccc(C2CCCCC2)cc1)c1ccc(C(=O)O)cc1)S(=O)(=O)c1c(F)c(F)c(F)c(F)c1F (2.5 µM)
inactive: [1] 0 | [2] 0 | [3] 0 | [4] 0 | [5] 0 | [6] 0 | [7] 0 | [8] 0 | [9] 0 | [10] 0

Remaining list, next part:

Cc1cc(O)c(C(C)C)cc1N=O [Poloxime] (10 µM)
inactive: [1] 0 | [2] 0 | [3] 0 | [4] 0 | [5] 0 | [6] 0 | [7] 0 | [8] 0 | [9] 0 | [10] 0

COc1ccc(C2CC(c3ccccc3)=NN2c2ccc(S(N)(=O)=O)cc2)cc1 (stereo not given) (10 µM)
inactive: [1] 0 | [2] 0 | [3] 0 | [4] 0 | [5] 0 | [6] 0 | [7] 0 | [8] 0 | [9] 0 | [10] 0

COc1ccc(C(=C2C(=O)Nc3ccccc32)c2ccc(OC)cc2)cc1 (10 µM)
inactive: [1] 0 | [2] 0 | [3] 0 | [4] 0 | [5] 0 | [6] 0 | [7] 0 | [8] 0 | [9] 0 | [10] 0

CC(C)(C)NC(=O)c1cncn1C1CCN(c2ccc(-c3nnc(C(F)(F)F)o3)cn2)CC1 (10 µM)
inactive: [1] 0 | [2] 0 | [3] 0 | [4] 0 | [5] 0 | [6] 0 | [7] 0 | [8] 0 | [9] 0 | [10] 0

O=C(/C=C/c1ccc(O[C@@H]2O[C@H](CO)[C@@H](O)[C@H](O)[C@H]2O[C@@H]2OC[C@](O)(CO)[C@H]2O)cc1)c1ccc(O)cc1O [Isoliquiritin apioside] (10 µM)
inactive: [1] 0 | [2] 0 | [3] 0 | [4] 0 | [5] 0 | [6] 0 | [7] 0 | [8] 0 | [9] 0 | [10] 0

COc1ccc([C@H]2c3[nH]c4ccc(Cl)cc4c3CCN2C(=O)Oc2ccc(Cl)cc2)cc1 (2.5 µM)
inactive: [1] 0 | [2] 0 | [3] 0 | [4] 0 | [5] 0 | [6] 0 | [7] 0 | [8] 0 | [9] 0 | [10] 0

CCn1c(C(=O)N(C2CC2)C2CC2)cc2c3c(ncn3C)c(Nc3cc(C)n(C)n3)nc21 (10 µM)
inactive: [1] 0 | [2] 0 | [3] 0 | [4] 0 | [5] 0 | [6] 0 | [7] 0 | [8] 0 | [9] 0 | [10] 0

CNc1nc(Nc2cnn(C3CCN(C4COC4)CC3F)c2Cl)ncc1C(F)(F)F (stereo not given) (10 µM)
inactive: [1] 0 | [2] 0 | [3] 0 | [4] 0 | [5] 0 | [6] 0 | [7] 0 | [8] 0 | [9] 0 | [10] 0

O=C(Nc1ccc(F)cc1F)[C@H](NC(=S)Nc1cc(C(F)(F)F)cc(C(F)(F)F)c1)c1ccccc1 (2.5 µM)
inactive: [1] 0 | [2] 0 | [3] 0 | [4] 0 | [5] 0 | [6] 0 | [7] 0 | [8] 0 | [9] 0 | [10] 0

CC[C@@]1(c2ccccc2)C2=C(CC(C)(C)CC2=O)Nc2[nH]ncc21 (10 µM)
inactive: [1] 0 | [2] 0 | [3] 0 | [4] 0 | [5] 0 | [6] 0 | [7] 0 | [8] 0 | [9] 0 | [10] 0

CCN(CC)c1ccc2cc(C(=O)N3CCN(C(=O)C4=Cc5c(Br)cccc5S4(=O)=O)CC3)c(=O)oc2c1 (2 µM)
inactive: [1] 0 | [2] 0 | [3] 0 | [4] 0 | [5] 0 | [6] 0 | [7] 0 | [8] 0 | [9] 0 | [10] 0

O=C(Nc1ccc2[nH]nc(-c3ccncc3)c2c1)[C@@H]1CCN(CC(=O)N2CCN(c3ccc(-c4ncccn4)cc3)CC2)C1 (2.5 µM)
inactive: [1] 0 | [2] 0 | [3] 0 | [4] 0 | [5] 0 | [6] 0 | [7] 0 | [8] 0 | [9] 0 | [10] 0

OC[C@H]1O[C@@H](Oc2cc3c(O)cc(O)cc3[o+]c2-c2cc(O)c(O)c(O)c2)[C@H](O)[C@@H](O)[C@@H]1O [Delphinidin 3-glucoside (chloride)] (10 µM)
inactive: [1] 0 | [2] 0 | [3] 0 | [4] 0 | [5] 0 | [6] 0 | [7] 0 | [8] 0 | [9] 0 | [10] 0

C=C1C(=O)O[C@@H]2C[C@@]3(C)CCC[C@H](C)C3=C[C@H]12 [Alantolactone] (10 µM)
active: [8] 1
inactive: [1] 0 | [2] 0 | [3] 0 | [4] 0 | [5] 0 | [6] 0 | [7] 0 | [9] 0 | [10] 0

CNCc1ccccc1-c1csc([C@@H](C)Nc2nc(C)nc3cc(OC)c(OC)cc23)c1 (2.5 µM)
inactive: [1] 0 | [2] 0 | [3] 0 | [4] 0 | [5] 0 | [6] 0 | [7] 0 | [8] 0 | [9] 0 | [10] 0

CCn1c(=O)c(-c2ccc(-c3cncc(C)n3)cc2Cl)cc2cnc(NCCC3CCN(C)CC3)nc21 (10 µM)
inactive: [1] 0 | [2] 0 | [3] 0 | [4] 0 | [5] 0 | [6] 0 | [7] 0 | [8] 0 | [9] 0 | [10] 0

Nc1ncnc2c1ncn2[C@@H]1O[C@H](CO)C[C@H]1O [Cordycepin] (10 µM)
inactive: [1] 0 | [2] 0 | [3] 0 | [4] 0 | [5] 0 | [6] 0 | [7] 0 | [8] 0 | [9] 0 | [10] 0

C=CC(=O)Nc1cc2c(Nc3ccc(OCc4ccccn4)c(Cl)c3)ncnc2cc1OCCN1CCOCC1 (10 µM)
inactive: [2] 0 | [3] 0 | [4] 0 | [5] 0 | [6] 0 | [7] 0 | [9] 0 | [10] 0
active: [1] 1 | [8] 1
